# “And” between values parts separate entries of the source, which are not always exact repeats. Equal values may be shown once. Hit rate of the full screen: of about 2,000 compounds, fewer than 10 were called active.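 The calls were made as follows: active = growth inhibition of at least 75% in every replicate, which also brings the mean inhibition to 75% or more; inconclusive = mean inhibition 75% or more but some replicate under 75%; inactive = the rest.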 The list shows a part of the results.
# Assay: reduced viability of yeast carrying PfHsp90 – S. cerevisiae, BacTiter-Glo luminescence, antimalarial PfHsp90 inhibitor project, primary screen (AID 504594);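 also: 0% = DMSO neutral control wells and 100% = 20 µM radicicol control wells; higher value means stronger growth inhibition because the sign is flipped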
# Details: S. cerevisiae expressing PfHsp90, BacTiter-Glo growth, 48 h; at 9.4 µM; stronger effect = higher value
row,Compound,growth inhibition
1,OC1CCCCC1N1CCC(c2ccccc2)CC1 (configuration not stated),inactive: -20.2%
2,C[C@]12CC[C@@H](O)C[C@@H]1CC[C@@H]1[C@@H]2CC[C@]2(C)[C@@H](O)CC[C@@H]12,inactive: 14.2%
3,COc1ccc2c(c1)CC1(CN2C)C(=O)NC(=O)N(CCc2ccccc2)C1=O (configuration not stated),inactive: -14.4%
4,CC(=O)OC1C2CCC1C(N1CCCC1)CC2 (configuration not stated),inactive: 11%
5,CC(Cc1ccccc1)NCC(=O)Nc1cc(N(C)C)nc2ccccc12 (configuration not stated),inactive: -3.96%
6,C[C@H]1CCCC(=O)CCC/C=C/c2cc(O)cc(O)c2C(=O)O1,inactive: -10.1%
7,Cc1ccc(-n2c(C)cc(/C=C3/C(=O)NC(=O)N(C)C3=O)c2C)cc1,inactive: 2.59%
8,Cc1ccsc1C(=O)C1CCCN(Cc2cc3ccccc3o2)C1 (configuration not stated),inactive: 8.42%
9,C#C[C@]1(O)CC[C@H]2[C@@H]3CCC4=CC(=O)CC[C@]4(C)[C@H]3CC[C@@]21C,inactive: 0.696%
10,CC(C)[N+](C)(CCC(C(N)=O)(c1ccccc1)c1ccccc1)C(C)C,inactive: -1.79%
11,C[C@@H]1O[C@@H](O[C@H]2C[C@@H](O)[C@]3(CO)[C@H]4[C@H](O)C[C@]5(C)[C@@H](C6COC(=O)C6)CC[C@]5(O)[C@@H]4CC[C@]3(O)C2)[C@H](O)[C@H](O)[C@H]1O (some centres not stated),inactive: -0.00875%
12,O=c1[nH]c2ccccc2n1CCCN1CCC(n2c(=O)[nH]c3cc(Cl)ccc32)CC1,inactive: -8.38%
13,O=C1CCCC2=C1C(c1cccnc1)Nc1ccccc1N2 (configuration not stated),inactive: 1.04%
14,CC[C@@H]1C(=O)OC[C@@H]1Cc1cncn1C,inactive: 2.16% and inactive: 0.637%
15,C#CCN(C)C(C)Cc1ccccc1 (configuration not stated),inactive: -11.2%
16,CC12CCC3C(CC=C4CC(O)CCC43C)C1C/C(=C\c1cccc(F)c1)C2=O (configuration not stated),inactive: 9.19%
17,CC12CC[C@H]3[C@@H](CCC4(O)C[C@H](O)CCC34/C=N/NC(=O)Cc3ccccc3)C1(O)CCC2C1=CC(=O)OC1 (some centres not stated),inactive: -1.88%
18,CC12CN3CC(C)(CN(C1)C31CCOCC1)C2=O,inactive: 17.4%
19,C[C@]12CC[C@@H](O)C[C@@H]1CC[C@@H]1[C@@H]2CC[C@]2(C)C(=O)CC[C@@H]12,inactive: -4%

row,Compound,growth inhibition
1,CC[C@]12C=CCN3CCC4(c5cc(Br)c(OC)cc5N(C)C4[C@@](O)(C(=O)OC)[C@@H]1OC(C)=O)C32 (some centres not stated),inactive: -1.11%
2,CC(C)[C@@]1(NC(=O)[C@@H]2C[C@@H]3c4cccc5[nH]cc(c45)C[C@H]3N(C)C2)O[C@@]2(O)[C@@H]3CCCN3C(=O)[C@H](Cc3ccccc3)N2C1=O,inactive: 2.9%
3,CCOc1ccc(C2C(C#N)=C(N)Oc3c2c(=O)oc2ccccc32)cc1 (configuration not stated),inactive: 5.8%
4,CC12CCC3C(CC=C4CC5(CCC43C)OCCO5)C1CCC2=O (configuration not stated),inactive: -6.3%
5,CC(C)CC12CN3CCN(CC(C3)C1O)C2 (configuration not stated),inactive: -2.34%
6,Nc1ccncc1,inactive: 4.61%
7,C[N+]1(C)CCOC(O)(c2ccc(-c3ccc(C4(O)C[N+](C)(C)CCO4)cc3)cc2)C1 (configuration not stated),inactive: 5.62%
8,C[C@]12CCC(=O)C=C1CC[C@@H]1[C@@H]2C(=O)C[C@]2(C)C(=O)CC[C@@H]12,inactive: 4.64%
9,COc1ccc(C(=O)N2CCCC2=O)cc1,inactive: -2.12%
10,O=C(O)CCCc1ccc(N(CCCl)CCCl)cc1,inactive: 4.52%
11,CN1C(=O)N(C)C(=O)C2(Cc3ccccc3N3CCOCC32)C1=O (configuration not stated),inactive: 6.46%
12,Cc1cc(Cl)ccc1OCC(=O)O,inactive: -5.95%
13,CCNC(=S)N(C)CCc1cc2c(c(OC)c1C=C1C(=O)N(C)C(=O)N(C)C1=O)OCO2,inactive: 6.5%
14,COc1cc2c3cc1Oc1cc(ccc1O)C[C@@H]1c4c(cc(OC)c(O)c4Oc4ccc(cc4)C[C@H]3N(C)CC2)CCN1C,inactive: -1.85%
15,NNC(=O)c1ccc(Cl)cc1,inactive: -2.65%
16,Clc1ccc(CSC(Cn2ccnc2)c2ccc(Cl)cc2Cl)cc1 (configuration not stated),active: 95%
17,CCCC[N+]1(C)[C@@H]2CC(OC(=O)[C@H](CO)c3ccccc3)C[C@H]1[C@@H]1O[C@@H]12 (some centres not stated),inactive: -5.17%
18,CC(CCc1ccccc1)NC(C)C(O)c1ccc(O)cc1 (configuration not stated),inactive: -1.15%
19,O=C1CN=C(c2ccccc2F)c2cc(Cl)ccc2N1,inactive: 3.26%

# Single entries from the results shown.
# growth inhibition, CC12CN3CC(C)(CN(C1)C31CCOCC1)C2=O reads inactive: 17.4%
# growth inhibition, CC12CC[C@H]3[C@@H](CCC4(O)C[C@H](O)CCC34/C=N/NC(=O)Cc3ccccc3)C1(O)CCC2C1=CC(=O)OC1 (some centres not stated) reads inactive: -1.88%
# growth inhibition, CC(CCc1ccccc1)NC(C)C(O)c1ccc(O)cc1 (configuration not stated) reads inactive: -1.15%

# (listing goes on)

row,Compound,growth inhibition
1,C[C@H](O)[C@H]1CC[C@H]2[C@@H]3CCC4=CC(=O)CC[C@]4(C)[C@H]3CC[C@]12C,inactive: 21.6%
2,CC(C)C[C@H](NC(=O)[C@@H]1CCCN1C(=O)[C@@H](N)Cc1ccc(O)cc1)C(=O)NCC(N)=O,inactive: 7.67%
3,COc1ccc(Cc2nccc3cc(OC)c(OC)cc23)cc1OC,inactive: 4.7%
4,CC1CCC[C@H](O)CCCCCc2cc(O)cc(O)c2C(=O)O1 (some centres not stated),inactive: 5.1%
5,CN1C2CCC1CC(OC(=O)c1ccc(Cl)cc1)C2 (configuration not stated),inactive: -6.17%
6,CC(C)(C)NCC(O)c1cc(Cl)c(N)c(Cl)c1 (configuration not stated),inactive: 1.41%
7,CCOC(=O)c1cc2c(cn1)[nH]c1ccccc12,inactive: 1.36%
8,COP(=S)(OC)SCN1C(=O)c2ccccc2C1=O,inactive: 0.176%
9,C[C@H]1CCC[C@H](O)CCCCCc2cc(O)cc(O)c2C(=O)O1,inactive: -3.6%
10,COC1=CC(=O)OC(/C=C/c2ccccc2)C1 (configuration not stated),inactive: -32.1%
11,Clc1ccc(C2NCCc3[nH]cnc32)cc1 (configuration not stated),inactive: -3.96%
12,CC12CN3CC(C)(CN(C1)C3c1cccs1)C2O (configuration not stated),inactive: 0.928%
13,CC(C)NC(C)C(=O)c1ccc2ccccc2c1 (configuration not stated),inactive: -5.95%
14,CCN1CC2(COC(=O)c3ccccc3N)CCC(OC)C34C5CC6C(OC)CC(O)(C5C6OC)C(O)(C(OC)C23)C14 (configuration not stated),inactive: -3.51%
15,COc1ccc(OC)c([C@@H](O)[C@H](C)NC(C)(C)C)c1,inactive: -7.13%
16,NCCc1ccc(O)cc1,inactive: -16.5%
17,C[N+]1(C)CCN(c2ccccc2)CC1,inactive: 4.14%
18,COc1ccc2c3c([nH]c2c1)C(C)=NCC3,inactive: 4.68%
19,C[C@@H]1O[C@@H](O[C@H]2C[C@@H](O)[C@]3(CO)[C@H]4[C@H](O)C[C@]5(C)[C@@H](C6=CC(=O)OC6)CC[C@]5(O)[C@@H]4CC[C@]3(O)C2)[C@H](O)[C@H](O)[C@H]1O,inactive: 5.88%

# Source: PubChem BioAssay AID504594 (Broad Institute, 2011)
